These are yes or no findings as the source states them, for the method shown. Binding seen in cells or lysates may run through a third protein. Binding can be weak; no strength is given. Where a sequence is shown, tags or fusion partners need not be part of it.
What follows are substances tested against T1, HA-tagged wild-type BCAT1 (branched-chain amino acid transaminase 1) (UniProt P54687) (assay: co-IP; U251 cells transfected with HA-BCAT1 and Flag-tagged CHIP (wild type or truncated mutants); NP-40 lysis buffer, 1 ug antibody and protein A/G agarose beads, 4 °C, 8 h; western blot).
T1 sequence: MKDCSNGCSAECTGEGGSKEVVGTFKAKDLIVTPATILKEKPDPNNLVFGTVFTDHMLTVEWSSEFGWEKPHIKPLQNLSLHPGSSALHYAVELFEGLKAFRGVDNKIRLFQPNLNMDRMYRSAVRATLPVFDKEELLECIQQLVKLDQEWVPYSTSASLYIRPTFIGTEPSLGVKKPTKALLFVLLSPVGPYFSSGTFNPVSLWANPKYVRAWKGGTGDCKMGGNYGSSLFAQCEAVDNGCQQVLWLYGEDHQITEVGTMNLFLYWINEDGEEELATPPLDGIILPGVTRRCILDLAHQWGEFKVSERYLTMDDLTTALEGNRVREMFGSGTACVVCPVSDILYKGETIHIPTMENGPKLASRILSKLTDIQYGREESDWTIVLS
“Flag-tagged CHIP mutant lacking the CC (coiled-coil) domain (domain or fragment)” was tested, and the binding was “no binding”.
“Flag-tagged CHIP mutant lacking the U-box domain (domain or fragment)” was tested, and the binding was “binds”.
With “Flag-tagged CHIP mutant lacking the TPR domain (domain or fragment)” the binding was “binds”.
